Measurements: the supplement of paper PMC8728848
The other results are listed elsewhere or left out.

How the values were obtained:
Experiment in all cases: glycan array binding signal (z-score within array); higher = stronger binding
Settings in all cases: glycan notation: IUPAC condensed, linker removed
[1] = target: Fuc(a1-2)Gal
How it was run: (§1)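 The Consortium for Functional Glycomics database supplied 3228 glycan arrays, of which those lacking an available protein sequence were dropped. The binding signal, a within-array Z-score, was averaged across arrays of the same protein sequence and across linkers. Negative scores can be read as non-binding.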

[2] = target: Fuc(a1-2)Gal(b1-3)GalNAc
How it was run: as §1

[3] = target: Fuc(a1-2)Gal(b1-3)GalNAc(a1-3)[Fuc(a1-2)]Gal(b1-4)Glc
How it was run: as §1

[4] = target: Fuc(a1-2)Gal(b1-3)GalNAc(a1-3)[Fuc(a1-2)]Gal(b1-4)GlcNAc
How it was run: as §1

[5] = target: Fuc(a1-2)Gal(b1-3)GalNAc(b1-3)Gal
How it was run: as §1

[6] = target: Fuc(a1-2)Gal(b1-3)GalNAc(b1-3)Gal(a1-4)Gal(b1-4)Glc
How it was run: as §1

[7] = target: Fuc(a1-2)Gal(b1-3)GalNAc(b1-4)[Neu5Ac(a2-3)]Gal(b1-4)Glc
How it was run: as §1

[8] = target: Fuc(a1-2)Gal(b1-3)GlcNAc
How it was run: as §1

[9] = target: Fuc(a1-2)Gal(b1-3)GlcNAc(b1-2)Man(a1-3)[Fuc(a1-2)Gal(b1-3)GlcNAc(b1-2)Man(a1-6)]Man(b1-4)GlcNAc(b1-4)GlcNAc
How it was run: as §1

[10] = target: Fuc(a1-2)Gal(b1-3)GlcNAc(b1-2)Man(a1-3)[Fuc(a1-2)Gal(b1-3)GlcNAc(b1-2)Man(a1-6)]Man(b1-4)GlcNAc(b1-4)[Fuc(a1-6)]GlcNAc
How it was run: as §1

[11] = target: Fuc(a1-2)Gal(b1-3)GlcNAc(b1-3)Gal(b1-4)Glc
How it was run: as §1

[12] = target: Fuc(a1-2)Gal(b1-3)GlcNAc(b1-3)GalNAc
How it was run: as §1

[13] = target: Fuc(a1-2)Gal(b1-3)GlcNAc(b1-3)[Fuc(a1-2)Gal(b1-3)GlcNAc(b1-6)]GalNAc
How it was run: as §1

[14] = target: Fuc(a1-2)Gal(b1-3)GlcNAc(b1-3)[Gal(b1-4)GlcNAc(b1-6)]Gal(b1-4)Glc
How it was run: as §1

[15] = target: Fuc(a1-2)Gal(b1-3)GlcNAc(b1-3)[Neu5Ac(a2-6)Gal(b1-4)GlcNAc(b1-6)]Gal(b1-4)Glc
How it was run: as §1

[16] = target: Fuc(a1-2)Gal(b1-3)GlcNAc6S
How it was run: as §1

[17] = target: Fuc(a1-2)Gal(b1-3)[Fuc(a1-4)]GlcNAc
How it was run: as §1

[18] = target: Fuc(a1-2)Gal(b1-3)[Fuc(a1-4)]GlcNAc(b1-2)Man(a1-3)[Fuc(a1-2)Gal(b1-3)[Fuc(a1-4)]GlcNAc(b1-2)Man(a1-3)]Man(b1-4)GlcNAc(b1-4)GlcNAc
How it was run: as §1

[19] = target: Fuc(a1-2)Gal(b1-3)[Fuc(a1-4)]GlcNAc(b1-2)Man(a1-3)[Fuc(a1-2)Gal(b1-3)[Fuc(a1-4)]GlcNAc(b1-2)Man(a1-6)]Man(b1-4)GlcNAc(b1-4)[Fuc(a1-6)]GlcNAc(b1-4)[Fuc(a1-6)]GlcNAc
How it was run: as §1

[20] = target: Fuc(a1-2)Gal(b1-3)[Fuc(a1-4)]GlcNAc(b1-3)[Fuc(a1-3)[Gal(b1-4)]GlcNAc(b1-6)]Gal(b1-4)Glc
How it was run: as §1

[21] = target: Fuc(a1-2)Gal(b1-3)[Fuc(a1-4)]GlcNAc(b1-3)[Gal(b1-4)GlcNAc(b1-6)]Gal(b1-4)Glc
How it was run: as §1

[22] = target: Fuc(a1-2)Gal(b1-4)Fuc(a1-3)]GlcNAc(b1-2)Man(a1-3)[Fuc(a1-2)Gal(b1-4)[Fuc(a1-3)]GlcNAc(b1-2)Man(a1-6)]Man(b1-4)GlcNAc(b1-4)GlcNAc
How it was run: as §1

[23] = target: Fuc(a1-2)Gal(b1-4)Glc
How it was run: as §1

[24] = target: Fuc(a1-2)Gal(b1-4)Glc6S
How it was run: as §1

[25] = target: Fuc(a1-2)Gal(b1-4)GlcNAc
How it was run: as §1

[26] = target: Fuc(a1-2)Gal(b1-4)GlcNAc(b1-2)Man
How it was run: as §1

[27] = target: Fuc(a1-2)Gal(b1-4)GlcNAc(b1-2)Man(a1-3)[Fuc(a1-2)Gal(b1-4)GlcNAc(b1-2)Man(a1-6)]Man(b1-4)GlcNAc(b1-4)GlcNAc
How it was run: as §1

[28] = target: Fuc(a1-2)Gal(b1-4)GlcNAc(b1-2)Man(a1-3)[Fuc(a1-2)Gal(b1-4)GlcNAc(b1-2)Man(a1-6)]Man(b1-4)GlcNAc(b1-4)[Fuc(a1-6)]GlcNAc
How it was run: as §1

[29] = target: Fuc(a1-2)Gal(b1-4)GlcNAc(b1-2)[Fuc(a1-2)Gal(b1-4)GlcNAc(b1-4)]Man(a1-3)[Fuc(a1-2)Gal(b1-4)GlcNAc(b1-2)Man(a1-6)]Man(b1-4)GlcNAc(b1-4)GlcNAc
How it was run: as §1

[30] = target: Fuc(a1-2)Gal(b1-4)GlcNAc(b1-3)Gal(b1-4)GlcNAc
How it was run: as §1

[31] = target: Fuc(a1-2)Gal(b1-4)GlcNAc(b1-3)Gal(b1-4)GlcNAc(b1-2)Man(a1-3)[Fuc(a1-2)Gal(b1-4)GlcNAc(b1-3)Gal(b1-4)GlcNAc(b1-2)Man(a1-6)]Man(b1-4)GlcNAc(b1-4)GlcNAc
How it was run: as §1

[32] = target: Fuc(a1-2)Gal(b1-4)GlcNAc(b1-3)Gal(b1-4)GlcNAc(b1-3)Gal(b1-4)GlcNAc
How it was run: as §1

[33] = target: Fuc(a1-2)Gal(b1-4)GlcNAc(b1-3)GalNAc
How it was run: as §1

[34] = target: Fuc(a1-2)Gal(b1-4)GlcNAc(b1-3)[Fuc(a1-2)Gal(b1-4)GlcNAc(b1-6)]GalNAc
How it was run: as §1

[35] = target: Fuc(a1-2)Gal(b1-4)GlcNAc(b1-3)[Fuc(a1-3)[Gal(b1-4)]GlcNAc(b1-6)]Gal(b1-4)Glc
How it was run: as §1

[36] = target: Fuc(a1-2)Gal(b1-4)GlcNAc(b1-6)GalNAc
How it was run: as §1

[37] = target: Fuc(a1-2)Gal(b1-4)GlcNAc6S
How it was run: as §1

[38] = target: Fuc(a1-2)Gal(b1-4)[Fuc(a1-3)]GlcNAc
How it was run: as §1

[39] = target: Fuc(a1-2)Gal(b1-4)[Fuc(a1-3)]GlcNAc(b1-2)Man(a1-3)[Fuc(a1-2)Gal(b1-4)[Fuc(a1-3)]GlcNAc(b1-2)Man(a1-6)]Man(b1-4)GlcNAc(b1-4)[Fuc(a1-6)]GlcNAc
How it was run: as §1

[40] = target: Fuc(a1-2)Gal(b1-4)[Fuc(a1-3)]GlcNAc(b1-2)[Fuc(a1-2)Gal(b1-4)[Fuc(a1-3)]GlcNAc(b1-4)]Man(a1-3)[Fuc(a1-2)Gal(b1-4)[Fuc(a1-3)]GlcNAc(b1-2)Man(a1-6)]Man(b1-4)GlcNAc(b1-4)GlcNAc
How it was run: as §1

[41] = target: Fuc(a1-2)Gal(b1-4)[Fuc(a1-3)]GlcNAc(b1-3)Gal(b1-4)[Fuc(a1-3)]GlcNAc
How it was run: as §1

[42] = target: Fuc(a1-2)Gal(b1-4)[Fuc(a1-3)]GlcNAc(b1-3)Gal(b1-4)[Fuc(a1-3)]GlcNAc(b1-3)Gal(b1-4)[Fuc(a1-3)]GlcNAc
How it was run: as §1

[43] = target: Fuc(a1-2)Gal(b1-4)[Fuc(a1-3)]GlcNAc(b1-3)GalNAc
How it was run: as §1

[44] = target: Fuc(a1-2)Gal(b1-4)[Fuc(a1-3)]GlcNAc(b1-3)[Neu5Ac(a2-6)Gal(b1-4)GlcNAc(b1-6)]Gal(b1-4)Glc
How it was run: as §1

[45] = target: Fuc(a1-2)Gal3S(b1-4)GlcNAc
How it was run: as §1

B1: XTP3-B-MRH2 (Homo sapiens), Q96DZ1 (protein)
chain: EFLSGSYCFRGGVGWWKYEFCYGKHVHQYHEDKDSGKTSVVVGTWNQEEHIEWAKKNTARAYHLQDDGTQTVRMVSHFYGNGDICDITDKPRQVTVKLKCKESDSPHAVTVYMLEPHSCQYILGVESPVICKILDTA
With B1 the “glycan array binding signal (z-score)” value [1] was -0.773, the “glycan array binding signal (z-score)” value [2] was 0.161 and the “glycan array binding signal (z-score)” value [3] was -0.747. For the same binder, the “glycan array binding signal (z-score)” value [4] was -1.33, the “glycan array binding signal (z-score)” value [5] was 0.18 and the “glycan array binding signal (z-score)” value [6] was -0.27. For the same binder, the “glycan array binding signal (z-score)” value [7] was -0.108, the “glycan array binding signal (z-score)” value [8] was 0.412 and the “glycan array binding signal (z-score)” value [9] was -0.458. For the same binder, the “glycan array binding signal (z-score)” value [10] was -1.21, the “glycan array binding signal (z-score)” value [11] was -0.618 and the “glycan array binding signal (z-score)” value [12] was 0.231. The “glycan array binding signal (z-score)” value [13] was 1.04, the “glycan array binding signal (z-score)” value [14] was -1.06 and the “glycan array binding signal (z-score)” value [15] was -1.29. The “glycan array binding signal (z-score)” value [16] was -0.383, the “glycan array binding signal (z-score)” value [17] was -1.05 and the “glycan array binding signal (z-score)” value [18] was -0.445. For the same binder, the “glycan array binding signal (z-score)” value [19] was -0.47, the “glycan array binding signal (z-score)” value [20] was 2.32 and the “glycan array binding signal (z-score)” value [21] was 0.411. The “glycan array binding signal (z-score)” value [22] was 2.2, the “glycan array binding signal (z-score)” value [23] was -0.632 and the “glycan array binding signal (z-score)” value [24] was -0.426. The “glycan array binding signal (z-score)” value [25] was -1.08, the “glycan array binding signal (z-score)” value [26] was 0.696 and the “glycan array binding signal (z-score)” value [27] was 1.67. For the same binder, the “glycan array binding signal (z-score)” value [28] was -0.189, the “glycan array binding signal (z-score)” value [29] was -0.58 and the “glycan array binding signal (z-score)” value [30] was -0.134. The “glycan array binding signal (z-score)” value [31] was 0.06, the “glycan array binding signal (z-score)” value [32] was 0.574 and the “glycan array binding signal (z-score)” value [33] was -0.57. For the same binder, the “glycan array binding signal (z-score)” value [34] was 1.07, the “glycan array binding signal (z-score)” value [35] was -0.248 and the “glycan array binding signal (z-score)” value [36] was -0.26. The “glycan array binding signal (z-score)” value [37] was -0.458, the “glycan array binding signal (z-score)” value [38] was -0.167 and the “glycan array binding signal (z-score)” value [39] was 0.442. For the same binder, the “glycan array binding signal (z-score)” value [40] was -0.624, the “glycan array binding signal (z-score)” value [41] was -0.464 and the “glycan array binding signal (z-score)” value [42] was -0.667. The “glycan array binding signal (z-score)” value [43] was -0.549, the “glycan array binding signal (z-score)” value [44] was -0.589 and the “glycan array binding signal (z-score)” value [45] was -0.066.
